Measurements: publication PMC11079001
Numbering of substitutions follows the chain as printed. No constants are given. Whether binding was seen depends on the method and setting. In cells and extracts the contact can be indirect. Some binding calls cover weakened binding; strength is not graded here. For some assays here: Where a sequence is shown, tags or fusion partners need not be part of it.

By UniProt entry, the sequences of proteins in these tests, tags left out.
UniProt P52286: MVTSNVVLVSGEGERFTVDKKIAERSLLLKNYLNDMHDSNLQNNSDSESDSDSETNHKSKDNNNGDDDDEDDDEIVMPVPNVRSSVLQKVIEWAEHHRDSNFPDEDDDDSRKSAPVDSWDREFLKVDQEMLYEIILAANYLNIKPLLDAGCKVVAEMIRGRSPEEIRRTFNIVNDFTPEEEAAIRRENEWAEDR

Key:
[1] = molecular target: T1, Met30 H226R (S. cerevisiae) (UniProt P39014); test: co-IP; 12xMyc-Met30 variants immunoprecipitated on MYC-trap beads from 1 mg native yeast whole cell lysate (Triton X-100 buffer: 50 mM HEPES pH 7.5, 0.2% Triton X-100, 200 mM NaCl), overnight at 4 °C; co-precipitated Skp1 by western blot; cells untreated or treated with 100 µM CdCl2 (time courses); also H2O2 or zinc pre-treatment
T1 sequence: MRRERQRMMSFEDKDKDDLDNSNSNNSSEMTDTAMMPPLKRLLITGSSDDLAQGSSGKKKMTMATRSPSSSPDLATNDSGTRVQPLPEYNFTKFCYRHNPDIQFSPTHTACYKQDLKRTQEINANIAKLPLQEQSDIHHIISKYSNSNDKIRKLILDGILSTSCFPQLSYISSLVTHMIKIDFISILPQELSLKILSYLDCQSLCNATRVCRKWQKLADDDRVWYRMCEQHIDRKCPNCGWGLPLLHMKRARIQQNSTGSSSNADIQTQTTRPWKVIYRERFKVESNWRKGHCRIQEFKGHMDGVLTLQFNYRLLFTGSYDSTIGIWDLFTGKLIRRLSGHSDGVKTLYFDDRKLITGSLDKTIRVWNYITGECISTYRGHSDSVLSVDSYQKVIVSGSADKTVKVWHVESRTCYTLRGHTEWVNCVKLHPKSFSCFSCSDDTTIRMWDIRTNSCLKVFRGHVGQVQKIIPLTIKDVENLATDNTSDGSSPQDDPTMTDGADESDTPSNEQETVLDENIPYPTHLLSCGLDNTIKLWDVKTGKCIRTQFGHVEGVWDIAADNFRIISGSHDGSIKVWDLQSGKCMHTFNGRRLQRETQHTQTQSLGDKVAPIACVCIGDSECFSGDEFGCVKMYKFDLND

[2] = molecular target: T2, 12xMyc-Met30 C201S (S. cerevisiae) (UniProt P39014); test: as above
T2 sequence: T1 sequence with C201S, R226H

Skp1 (from UniProt P52286 1-194)
binding [1]: binds | binding [2]: binds
